The values that follow come from publication PMC6815964.

Chains of the proteins cited; added tags and fusions are not shown.
UniProt Q09472: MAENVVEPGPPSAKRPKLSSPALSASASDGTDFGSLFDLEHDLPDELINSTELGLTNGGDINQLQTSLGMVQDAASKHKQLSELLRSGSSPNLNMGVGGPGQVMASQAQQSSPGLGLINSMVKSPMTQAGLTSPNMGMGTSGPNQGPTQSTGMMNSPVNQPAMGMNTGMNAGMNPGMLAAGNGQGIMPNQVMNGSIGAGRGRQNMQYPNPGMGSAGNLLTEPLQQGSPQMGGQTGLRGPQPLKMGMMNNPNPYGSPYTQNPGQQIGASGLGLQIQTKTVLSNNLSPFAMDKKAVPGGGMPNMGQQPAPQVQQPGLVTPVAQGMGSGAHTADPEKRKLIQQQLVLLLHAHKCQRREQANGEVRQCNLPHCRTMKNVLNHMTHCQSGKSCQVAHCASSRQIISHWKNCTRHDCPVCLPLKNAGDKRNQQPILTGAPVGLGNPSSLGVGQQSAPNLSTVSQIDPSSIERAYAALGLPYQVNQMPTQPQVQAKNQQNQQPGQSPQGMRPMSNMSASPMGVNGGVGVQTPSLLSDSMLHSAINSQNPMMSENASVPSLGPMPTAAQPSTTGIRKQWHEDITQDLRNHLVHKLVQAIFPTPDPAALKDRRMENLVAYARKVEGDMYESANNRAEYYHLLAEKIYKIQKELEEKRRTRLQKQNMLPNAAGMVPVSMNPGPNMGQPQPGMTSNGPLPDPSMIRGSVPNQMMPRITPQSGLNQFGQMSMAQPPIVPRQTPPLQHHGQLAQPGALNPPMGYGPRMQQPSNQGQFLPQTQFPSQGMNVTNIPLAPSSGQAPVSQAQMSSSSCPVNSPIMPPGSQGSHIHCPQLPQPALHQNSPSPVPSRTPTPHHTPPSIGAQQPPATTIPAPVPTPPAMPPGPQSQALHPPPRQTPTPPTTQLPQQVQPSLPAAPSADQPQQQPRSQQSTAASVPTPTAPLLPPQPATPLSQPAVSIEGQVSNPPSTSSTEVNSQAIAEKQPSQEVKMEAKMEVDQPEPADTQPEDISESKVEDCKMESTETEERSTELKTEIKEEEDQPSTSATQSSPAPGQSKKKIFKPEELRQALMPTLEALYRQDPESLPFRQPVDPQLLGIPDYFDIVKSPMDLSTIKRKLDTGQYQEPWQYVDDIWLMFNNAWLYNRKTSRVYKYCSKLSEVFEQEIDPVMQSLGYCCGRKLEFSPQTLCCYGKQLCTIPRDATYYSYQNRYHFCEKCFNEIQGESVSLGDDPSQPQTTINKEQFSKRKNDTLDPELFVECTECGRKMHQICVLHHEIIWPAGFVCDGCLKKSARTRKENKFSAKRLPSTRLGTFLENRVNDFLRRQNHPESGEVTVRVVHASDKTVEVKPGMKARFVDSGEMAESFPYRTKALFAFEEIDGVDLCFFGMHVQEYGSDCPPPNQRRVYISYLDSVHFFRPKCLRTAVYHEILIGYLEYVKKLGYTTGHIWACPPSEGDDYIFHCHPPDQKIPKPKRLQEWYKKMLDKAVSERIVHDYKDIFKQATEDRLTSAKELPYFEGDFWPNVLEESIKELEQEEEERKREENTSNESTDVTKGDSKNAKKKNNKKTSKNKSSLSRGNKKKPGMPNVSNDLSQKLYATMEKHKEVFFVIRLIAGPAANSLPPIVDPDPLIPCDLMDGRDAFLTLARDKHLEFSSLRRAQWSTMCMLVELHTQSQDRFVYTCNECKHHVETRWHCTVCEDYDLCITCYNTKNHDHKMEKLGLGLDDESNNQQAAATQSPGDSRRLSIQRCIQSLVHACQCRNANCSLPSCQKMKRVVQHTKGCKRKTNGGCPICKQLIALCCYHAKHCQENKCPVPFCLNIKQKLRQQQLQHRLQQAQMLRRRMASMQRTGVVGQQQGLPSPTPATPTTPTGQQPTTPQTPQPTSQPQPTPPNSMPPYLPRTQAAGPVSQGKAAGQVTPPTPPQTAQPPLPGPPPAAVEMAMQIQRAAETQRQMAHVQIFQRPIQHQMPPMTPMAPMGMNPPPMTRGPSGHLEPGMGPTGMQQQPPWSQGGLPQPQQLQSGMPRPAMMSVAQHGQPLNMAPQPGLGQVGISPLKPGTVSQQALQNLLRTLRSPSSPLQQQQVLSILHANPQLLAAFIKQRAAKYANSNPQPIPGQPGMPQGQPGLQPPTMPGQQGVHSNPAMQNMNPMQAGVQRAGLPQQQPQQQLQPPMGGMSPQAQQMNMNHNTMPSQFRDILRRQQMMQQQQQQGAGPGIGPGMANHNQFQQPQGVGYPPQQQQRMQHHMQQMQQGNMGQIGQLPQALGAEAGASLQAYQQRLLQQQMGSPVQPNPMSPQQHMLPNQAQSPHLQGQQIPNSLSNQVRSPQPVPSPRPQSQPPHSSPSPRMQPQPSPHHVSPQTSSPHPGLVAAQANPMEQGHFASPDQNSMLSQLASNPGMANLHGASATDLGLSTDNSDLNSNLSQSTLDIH
UniProt Q92793: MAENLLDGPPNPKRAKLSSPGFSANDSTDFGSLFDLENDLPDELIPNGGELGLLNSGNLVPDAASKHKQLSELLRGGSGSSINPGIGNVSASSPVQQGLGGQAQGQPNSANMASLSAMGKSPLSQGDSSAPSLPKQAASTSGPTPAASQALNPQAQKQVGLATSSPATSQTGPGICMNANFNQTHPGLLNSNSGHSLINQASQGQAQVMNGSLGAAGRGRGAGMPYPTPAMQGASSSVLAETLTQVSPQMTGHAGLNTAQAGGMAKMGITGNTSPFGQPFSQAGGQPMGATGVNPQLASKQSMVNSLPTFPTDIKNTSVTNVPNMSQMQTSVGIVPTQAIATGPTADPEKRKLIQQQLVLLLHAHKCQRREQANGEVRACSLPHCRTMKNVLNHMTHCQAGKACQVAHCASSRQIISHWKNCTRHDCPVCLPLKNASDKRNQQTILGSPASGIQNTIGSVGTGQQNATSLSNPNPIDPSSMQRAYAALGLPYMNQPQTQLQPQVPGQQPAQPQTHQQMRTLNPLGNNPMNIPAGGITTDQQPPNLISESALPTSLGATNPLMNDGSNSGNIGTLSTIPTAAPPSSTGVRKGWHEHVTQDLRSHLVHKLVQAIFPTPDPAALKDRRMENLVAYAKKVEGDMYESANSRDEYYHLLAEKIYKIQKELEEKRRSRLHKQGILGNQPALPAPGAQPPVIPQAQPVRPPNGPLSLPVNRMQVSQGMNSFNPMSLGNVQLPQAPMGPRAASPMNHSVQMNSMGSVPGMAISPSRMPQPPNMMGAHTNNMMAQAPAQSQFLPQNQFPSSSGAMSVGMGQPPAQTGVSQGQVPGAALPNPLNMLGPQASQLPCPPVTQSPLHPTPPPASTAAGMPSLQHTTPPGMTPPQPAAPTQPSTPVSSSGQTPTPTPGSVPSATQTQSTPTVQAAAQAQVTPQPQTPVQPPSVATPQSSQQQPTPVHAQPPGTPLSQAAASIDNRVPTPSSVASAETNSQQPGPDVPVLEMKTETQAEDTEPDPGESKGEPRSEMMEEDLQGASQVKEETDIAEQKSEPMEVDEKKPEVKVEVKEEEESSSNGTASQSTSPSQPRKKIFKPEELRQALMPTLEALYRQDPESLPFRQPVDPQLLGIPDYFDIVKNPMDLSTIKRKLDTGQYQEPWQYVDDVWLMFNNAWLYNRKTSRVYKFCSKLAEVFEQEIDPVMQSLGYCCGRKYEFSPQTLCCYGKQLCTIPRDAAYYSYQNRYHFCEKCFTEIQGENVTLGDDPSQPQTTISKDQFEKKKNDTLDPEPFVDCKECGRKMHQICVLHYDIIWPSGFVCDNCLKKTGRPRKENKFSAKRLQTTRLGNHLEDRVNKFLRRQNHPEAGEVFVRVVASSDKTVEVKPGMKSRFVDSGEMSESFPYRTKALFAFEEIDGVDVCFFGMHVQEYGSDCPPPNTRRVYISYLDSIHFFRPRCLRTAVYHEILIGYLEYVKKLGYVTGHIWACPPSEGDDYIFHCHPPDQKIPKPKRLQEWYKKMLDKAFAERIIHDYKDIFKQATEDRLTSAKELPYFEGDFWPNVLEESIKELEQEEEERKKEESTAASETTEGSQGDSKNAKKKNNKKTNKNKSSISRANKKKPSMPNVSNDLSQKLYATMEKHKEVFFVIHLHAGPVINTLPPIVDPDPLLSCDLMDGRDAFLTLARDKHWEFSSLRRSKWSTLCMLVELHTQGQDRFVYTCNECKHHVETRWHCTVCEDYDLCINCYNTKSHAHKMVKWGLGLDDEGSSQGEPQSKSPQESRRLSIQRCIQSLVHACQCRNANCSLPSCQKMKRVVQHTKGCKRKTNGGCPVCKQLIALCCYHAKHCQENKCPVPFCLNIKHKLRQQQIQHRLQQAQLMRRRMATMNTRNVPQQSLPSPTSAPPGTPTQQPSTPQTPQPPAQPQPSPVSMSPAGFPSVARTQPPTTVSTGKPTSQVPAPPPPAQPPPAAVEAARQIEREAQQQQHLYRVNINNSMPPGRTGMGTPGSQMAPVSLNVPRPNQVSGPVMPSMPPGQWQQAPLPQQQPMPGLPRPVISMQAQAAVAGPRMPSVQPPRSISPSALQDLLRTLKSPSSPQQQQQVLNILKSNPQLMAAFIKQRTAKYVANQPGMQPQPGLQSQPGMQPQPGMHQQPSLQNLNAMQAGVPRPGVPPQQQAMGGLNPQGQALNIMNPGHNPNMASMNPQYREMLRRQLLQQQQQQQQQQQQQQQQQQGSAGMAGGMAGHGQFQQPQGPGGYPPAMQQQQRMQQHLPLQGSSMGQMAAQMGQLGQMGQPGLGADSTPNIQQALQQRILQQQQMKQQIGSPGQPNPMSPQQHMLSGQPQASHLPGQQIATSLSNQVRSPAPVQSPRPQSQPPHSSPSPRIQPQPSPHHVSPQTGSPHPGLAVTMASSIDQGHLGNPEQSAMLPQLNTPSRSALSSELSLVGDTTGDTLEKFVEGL

No constants are given. Whether binding was seen depends on the method and setting. For some assays here: In cells and extracts the contact can be indirect. Some binding calls cover weakened binding; strength is not graded here.

The target of assay [1] is p300 (human (endogenous in MCF-7 and MDA-MB231)) (UniProt Q09472). Briefly: co-IP; co-IP of CapG and p300 (Figure S7B, not shown); precipitating antibody and cell line not told in the text shown.
Substrate in assay [2]: CBP (human (endogenous in MCF-7 and MDA-MB231)) (UniProt Q92793)
Kind of assay: co-IP; MCF-7/CapG and MDA-MB231 cell lysates immunoprecipitated with anti-CBP or control; precipitates immunoblotted.

Substrate in assay [3]: CBP (human (endogenous in MCF-7 and MDA-MB231)) (UniProt Q92793)
Kind of assay: ChIP-reChIP; MCF-7 cells transfected with CapG, cross-linked with 1% formaldehyde, chromatin sheared; sequential IP with anti-CapG then anti-CBP; qPCR of the PIK3R1/P50 promoter.

B1: Macrophage-capping protein (CapG), ectopically expressed in MCF-7 cells (protein, UniProt P40121 1-348)
chain: MYTAIPQSGSPFPGSVQDPGLHVWRVEKLKPVPVAQENQGVFFSGDSYLVLHNGPEEVSHLHLWIGQQSSRDEQGACAVLAVHLNTLLGERPVQHREVQGNESDLFMSYFPRGLKYQEGGVESAFHKTSTGAPAAIKKLYQVKGKKNIRATERALNWDSFNTGDCFILDLGQNIFAWCGGKSNILERNKARDLALAIRDSERQGKAQVEIVTDGEEPAEMIQVLGPKPALKEGNPEEDLTADKANAQAAALYKVSDATGQMNLTKVADSSPFALELLISDDCFVLDNGLCGKIYIWKGRKANEKERQAALQVAEGFISRMQYAPNTQVEILPQGHESPIFKQFFKDWK
As for B1, the binding entry in assay [1], in assay [2] and in assay [3] was “binds” each time.

B2: Macrophage-capping protein (CapG), endogenous in MDA-MB231 cells (protein, UniProt P40121 1-348)
chain: MYTAIPQSGSPFPGSVQDPGLHVWRVEKLKPVPVAQENQGVFFSGDSYLVLHNGPEEVSHLHLWIGQQSSRDEQGACAVLAVHLNTLLGERPVQHREVQGNESDLFMSYFPRGLKYQEGGVESAFHKTSTGAPAAIKKLYQVKGKKNIRATERALNWDSFNTGDCFILDLGQNIFAWCGGKSNILERNKARDLALAIRDSERQGKAQVEIVTDGEEPAEMIQVLGPKPALKEGNPEEDLTADKANAQAAALYKVSDATGQMNLTKVADSSPFALELLISDDCFVLDNGLCGKIYIWKGRKANEKERQAALQVAEGFISRMQYAPNTQVEILPQGHESPIFKQFFKDWK
As for B2, the binding entry in assay [1] and in assay [2] was “binds” in each case.
